# Results from PubChem BioAssay AID624297 (National Center for Advancing Translational Sciences (NCATS), 2012).
# About 6,200 (1.8%) of roughly 340,000 compounds were called active. Inconclusive means that the source gave no clear call. Such entries were picked first, then a sample of the others. Calls come from the whole dose curve; as a rule, active = well fitted activation curve with a large enough effect; inconclusive = small, poorly fitted or top-dose-only effect; inactive = no such curve, though single readings can be large or run the other way. Potencies of inconclusive entries are doubtful fits and often do not repeat.
# Experiment: A quantitative high throughput screen for small molecules that induce DNA re-replication in SW480 colon adenocarcinoma cells. For re-replication activation: % of control where 0% means no effect. Note: nearly all actives have a fitted effect of over 55% in size.
# Settings: Hoechst DNA content imaging, 48 h; re-replication activation: at 46.1 µM (top of the series)
# In short: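 Quantitative HTS format with DMSO vehicle controls; 48 hr drug incubation at 37 C, then 40 min Hoechst staining and scanning imager measurement at 405 nm excitation.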
# Potency is the fitted concentration of half-maximal effect.
SMILES,re-replication activation,Potency
CCOC(=O)c1sc2nc(C)nc(NCc3cccnc3)c2c1C,inactive: -0.921%,–
CCOC(=O)N1CCC(NC(=O)CS(=O)Cc2nc(-c3ccc(C)cc3)oc2C)CC1 (centres undefined),–,"inconclusive: 0.58 µM [activator, full curve, poor fit]"
CCCCc1nc(NCCN)c(C#N)c2c1CSC(C)(C)C2,–,"inconclusive: 23.1 µM [activator, single point]"
CN(CC(=O)Nc1ccccc1Cl)C(=O)CSc1nnc(-c2ccco2)o1,–,"inconclusive: 7.31 µM [activator, single point]"
COc1cc(-c2noc(C)c2/C=C/c2ccc(N)cc2)cc(OC)c1OC,–,"inconclusive: 0.82 µM [activator, full curve, poor fit]"
Cc1nn(CC(=O)NCCCN2CCCC2=O)c(C)c1[N+](=O)[O-],–,"inconclusive: 4.11 µM [activator, partial curve, poor fit]"
Cc1[nH]c(=O)c(C(=O)/C=C/c2ccccc2F)c2c1CCCC2,–,active: 4.11 µM
O=c1ccc(-c2ccc(S(=O)(=O)NCc3cccc(Br)c3)s2)n[nH]1,–,"inconclusive: 32.6 µM [activator, partial curve, poor fit]"
CC(C)Cn1c(SCC(=O)N2CCCc3ccccc32)nc2ccccc2c1=O,–,"inconclusive: 20.6 µM [activator, single point]"
Cc1cc(S(=O)(=O)NC2CCN(Cc3ccccc3)CC2)c(C)cc1Cl,inactive: 17.1%,–
Nc1nc(Nc2cccc(F)c2)nc2ccccc12,inactive: -0.0727%,–
Cc1nc(Nc2ccccc2)sc1C,–,"inconclusive: 20.6 µM [activator, single point]"
COc1ccc(OC)c(-c2cc(C(=O)NCc3cccs3)no2)c1,inactive: 22.5%,–
COCCn1c(SCC(=O)N2CCOCC2)nnc1-c1ccncc1,inactive: -21.1%,–
CCSC(=O)N1c2ccc(OC)cc2C=CC1C#N (centres undefined),–,"inconclusive: 0.326 µM [activator, full curve, poor fit]"
COc1cc(CN2CCN(C(c3ccccc3)c3ccccc3)CC2)cc(OC)c1OC,inactive: 22%,–
CCOc1cccc2sc(N(CCCN(C)C)C(=O)c3ccc(S(=O)(=O)N(C)Cc4ccccc4)cc3)nc12,–,"inconclusive: 18.4 µM [activator, single point]"
COc1ccc(S(=O)(=O)/N=C2\C=C(NS(=O)(=O)c3ccccc3)C(=O)c3ccccc32)cc1,–,"inconclusive: 29.1 µM [activator, single point]"
COc1ccc(NS(=O)(=O)c2cc(NC(=O)c3cnc(C)cn3)ccc2N2CCCCC2)cc1,inactive: 5.27%,–
[O-]/C(=C(\C(=S)Nc1ccccc1F)[n+]1ccccc1)c1ccc(OC(F)F)cc1,–,"inconclusive: 23.1 µM [activator, partial curve, poor fit]"
CO[C@@]12[C@H](COC(N)=O)C3=C(C(=O)C(C)=C(N)C3=O)N1C[C@@H]1N[C@@H]12,–,"inconclusive: 10.3 µM [activator, single point]"
O=C(CN1CCc2cc3c(cc2C1)OCCCO3)Nc1c(F)cccc1F,–,"inconclusive: 32.6 µM [activator, single point]"

# Three entries from above, tab-delimited:
SMILES	re-replication activation	Potency
CCOC(=O)N1CCC(NC(=O)CS(=O)Cc2nc(-c3ccc(C)cc3)oc2C)CC1 (centres undefined)	–	inconclusive: 0.58 µM [activator, full curve, poor fit]
CCOc1cccc2sc(N(CCCN(C)C)C(=O)c3ccc(S(=O)(=O)N(C)Cc4ccccc4)cc3)nc12	–	inconclusive: 18.4 µM [activator, single point]
O=C(CN1CCc2cc3c(cc2C1)OCCCO3)Nc1c(F)cccc1F	–	inconclusive: 32.6 µM [activator, single point]

# Further compounds

SMILES,re-replication activation,Potency
O=C(NC1=NCCS1)c1cccc(Br)c1,–,"inconclusive: 23.1 µM [activator, single point]"
CC1(C)CC(=O)C2=C(C1)N1C(=C(C#N)C2c2ccc(Cl)cc2)N=C(N)c2ccccc21 (centres undefined),–,"inconclusive: 29.1 µM [activator, single point]"
CCCCN(C)CCCNC(=O)c1cn(C)c2ccc(S(=O)(=O)N(C)C3CCCCC3)cc2c1=O,inconclusive: 63.3% [activator],–
O=c1oc(-c2ccccc2NS(=O)(=O)c2ccccc2)nc2ccccc12,inactive: -8.89%,–
N=C1/C(=C\c2ccc(SCc3ccccc3)o2)C(=O)N=C2SC=NN12,–,"inconclusive: 29.1 µM [activator, single point]"
S=c1nc2ccccc2c2nc(-c3ccccc3Br)[nH]n12,–,"inconclusive: 18.4 µM [activator, single point]"
c1cc2c(cc1C1=Nn3c(nnc3C3CCCCC3)SC1)OCO2,–,"inconclusive: 32.6 µM [activator, partial curve, poor fit]"
CC(=O)N1CCC(C(=O)Nc2ccc3c(c2)CCC3)CC1,–,"inconclusive: 0.92 µM [activator, full curve, poor fit]"
CC1CCc2c(sc(NC(=O)CCc3nc4ccccc4c(=O)[nH]3)c2C#N)C1 (centres undefined),inactive: -6.66%,–
COc1ccc(CNC2C[C@H]3CCCC(=O)N4CC[C@@H](C2)[C@@H]34)cc1 (some centres undefined),–,"inconclusive: 1.84 µM [activator, partial curve, poor fit]"
CCOC(=O)C1(CCOc2ccccc2)CCN(Cc2ccc3c(c2)OCCO3)CC1,–,"inconclusive: 29.1 µM [activator, single point]"
COc1ccc(N(CC(=O)Nc2ccc(C)cc2)S(=O)(=O)c2c(C)noc2C)cc1,inactive: -4.42%,–
O=c1oc(-c2ccccc2Br)nc2ccccc12,–,"inconclusive: 32.6 µM [activator, partial curve, poor fit]"
O=C(NC(=S)NNC(=O)c1cc2ccccc2cc1O)c1ccco1,–,"inconclusive: 20.6 µM [activator, single point]"
CN(C)CCNC(=O)c1ccccc1-c1cc2ccccc2c(=O)o1,inactive: -3.7%,–
Cc1ccc(C(=O)N2CCN(c3ccc(NC(=O)COc4ccccc4C)cc3)CC2)cc1,inactive: 3.93%,–
Cc1ccc(S(=O)(=O)NC(C)(C)CN2CCc3ccccc3C2)cc1,–,active: 6.51 µM
COc1ccc(NC(=O)C(=O)NCC2CCCN2S(=O)(=O)c2cc(C)ccc2C)cc1 (centres undefined),–,active: 16.4 µM
CC(=O)C(Cl)C(=O)Nc1ccccc1 (centres undefined),–,"inconclusive: 29.1 µM [activator, single point]"
CC(C)c1ccc(-n2nnnc2SCC(=O)NC2CC2)cc1,inactive: -9.83%,–
O=C(CSc1ncnc2c1nnn2Cc1ccccc1)NC1CCCCC1,–,"inconclusive: 18.4 µM [activator, partial curve, poor fit]"
O=C(OCC(=O)N1CCOCC1)c1ccc2[nH]c3c(c2c1)CCCC3,–,"inconclusive: 29.1 µM [activator, single point]"
